{"source": "PubChem BioAssay AID1224830 – NIAID | 2016", "aim": "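Host factors that control LPS-induced TNF expression in human macrophages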 (primary screen)", "cells": "human THP-1 monocytic leukaemia cells, TNF dual-luciferase reporter clone, PMA-differentiated to macrophage-like cells", "reagent": "siRNA pool against human genes, 50 nM", "duration": "LPS for 4 h, given about 3 days after siRNA transfection", "treatment": "bacterial LPS (TLR4 ligand), 10 ng/ml", "read-out": "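TNF firefly reporter luminescence divided by renilla, normalised to the plate median, then turned into a robust z-score for each replicate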", "reading the numbers": "TNF reporter robust z-score: higher = stronger TNF reporter response to LPS", "active means": "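Each well counts as active if its z-score is over 2.8 or under -1.5; controls are left without a call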", "note": "In all, the deposit lists about 18,000 reagents; below is a part drawn at random. Over the whole deposit, about 2,900 (16%) are marked active. 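Calls are made per well; low scores hint the gene aids the LPS response, high scores that it dampens it.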 Repeated entries: four replicate wells of each siRNA pool."}
{"gene": "CDC14B (GeneID 8555)", "TNF reporter robust z-score": 0.36, "Outcome": "inactive"}
{"gene": "CDC14B (GeneID 8555)", "TNF reporter robust z-score": 0.29, "Outcome": "inactive"}
{"gene": "CDC14B (GeneID 8555)", "TNF reporter robust z-score": 1.57, "Outcome": "inactive"}
{"gene": "CDC14B (GeneID 8555)", "TNF reporter robust z-score": -1.01, "Outcome": "inactive"}
{"gene": "FZD1 (GeneID 8321)", "TNF reporter robust z-score": 1.12, "Outcome": "inactive"}
{"gene": "FZD1 (GeneID 8321)", "TNF reporter robust z-score": 0.89, "Outcome": "inactive"}
{"gene": "FZD1 (GeneID 8321)", "TNF reporter robust z-score": 0.15, "Outcome": "inactive"}
{"gene": "FZD1 (GeneID 8321)", "TNF reporter robust z-score": 0.84, "Outcome": "inactive"}
{"gene": "PYROXD1 (GeneID 79912)", "TNF reporter robust z-score": -1.04, "Outcome": "inactive"}
{"gene": "PYROXD1 (GeneID 79912)", "TNF reporter robust z-score": -0.96, "Outcome": "inactive"}
{"gene": "PYROXD1 (GeneID 79912)", "TNF reporter robust z-score": -0.67, "Outcome": "inactive"}
{"gene": "PYROXD1 (GeneID 79912)", "TNF reporter robust z-score": 0.02, "Outcome": "inactive"}
{"gene": "ZNF784 (GeneID 147808)", "TNF reporter robust z-score": -0.05, "Outcome": "inactive"}
{"gene": "ZNF784 (GeneID 147808)", "TNF reporter robust z-score": -0.15, "Outcome": "inactive"}
{"gene": "ZNF784 (GeneID 147808)", "TNF reporter robust z-score": 0.58, "Outcome": "inactive"}
{"gene": "ZNF784 (GeneID 147808)", "TNF reporter robust z-score": -1.62, "Outcome": "active"}
{"gene": "ZNF430 (GeneID 80264)", "TNF reporter robust z-score": 0.22, "Outcome": "inactive"}
{"gene": "ZNF430 (GeneID 80264)", "TNF reporter robust z-score": 0.46, "Outcome": "inactive"}
{"gene": "ZNF430 (GeneID 80264)", "TNF reporter robust z-score": -0.1, "Outcome": "inactive"}
{"gene": "ZNF430 (GeneID 80264)", "TNF reporter robust z-score": 1.51, "Outcome": "inactive"}
{"gene": "IPO4 (GeneID 79711)", "TNF reporter robust z-score": 1.57, "Outcome": "inactive"}
{"gene": "IPO4 (GeneID 79711)", "TNF reporter robust z-score": 1.96, "Outcome": "inactive"}
{"gene": "IPO4 (GeneID 79711)", "TNF reporter robust z-score": -0.85, "Outcome": "inactive"}
{"gene": "IPO4 (GeneID 79711)", "TNF reporter robust z-score": -0.25, "Outcome": "inactive"}
{"gene": "ICAM2 (GeneID 3384)", "TNF reporter robust z-score": 4.14, "Outcome": "active"}
{"gene": "ICAM2 (GeneID 3384)", "TNF reporter robust z-score": 3.22, "Outcome": "active"}
{"gene": "ICAM2 (GeneID 3384)", "TNF reporter robust z-score": 2.06, "Outcome": "inactive"}
{"gene": "ICAM2 (GeneID 3384)", "TNF reporter robust z-score": 4.51, "Outcome": "active"}
{"gene": "SLC22A25 (GeneID 387601)", "TNF reporter robust z-score": -0.78, "Outcome": "inactive"}
{"gene": "SLC22A25 (GeneID 387601)", "TNF reporter robust z-score": -0.52, "Outcome": "inactive"}
{"gene": "SLC22A25 (GeneID 387601)", "TNF reporter robust z-score": -0.74, "Outcome": "inactive"}
{"gene": "SLC22A25 (GeneID 387601)", "TNF reporter robust z-score": -0.8, "Outcome": "inactive"}

Continued (6 carried over from the part before).
{"gene": "ICAM2 (GeneID 3384)", "TNF reporter robust z-score": 2.06, "Outcome": "inactive"}
{"gene": "ICAM2 (GeneID 3384)", "TNF reporter robust z-score": 4.51, "Outcome": "active"}
{"gene": "SLC22A25 (GeneID 387601)", "TNF reporter robust z-score": -0.78, "Outcome": "inactive"}
{"gene": "SLC22A25 (GeneID 387601)", "TNF reporter robust z-score": -0.52, "Outcome": "inactive"}
{"gene": "SLC22A25 (GeneID 387601)", "TNF reporter robust z-score": -0.74, "Outcome": "inactive"}
{"gene": "SLC22A25 (GeneID 387601)", "TNF reporter robust z-score": -0.8, "Outcome": "inactive"}
{"gene": "EPS15 (GeneID 2060)", "TNF reporter robust z-score": -0.11, "Outcome": "inactive"}
{"gene": "EPS15 (GeneID 2060)", "TNF reporter robust z-score": -0.41, "Outcome": "inactive"}
{"gene": "EPS15 (GeneID 2060)", "TNF reporter robust z-score": 0.23, "Outcome": "inactive"}
{"gene": "EPS15 (GeneID 2060)", "TNF reporter robust z-score": 0.14, "Outcome": "inactive"}
{"gene": "SNAPC3 (GeneID 6619)", "TNF reporter robust z-score": -1.26, "Outcome": "inactive"}
{"gene": "SNAPC3 (GeneID 6619)", "TNF reporter robust z-score": -0.87, "Outcome": "inactive"}
{"gene": "SNAPC3 (GeneID 6619)", "TNF reporter robust z-score": -0.78, "Outcome": "inactive"}
{"gene": "SNAPC3 (GeneID 6619)", "TNF reporter robust z-score": -0.82, "Outcome": "inactive"}
{"gene": "ACTR3B (GeneID 57180)", "TNF reporter robust z-score": -0.24, "Outcome": "inactive"}
{"gene": "ACTR3B (GeneID 57180)", "TNF reporter robust z-score": -0.09, "Outcome": "inactive"}
{"gene": "ACTR3B (GeneID 57180)", "TNF reporter robust z-score": -0.92, "Outcome": "inactive"}
{"gene": "ACTR3B (GeneID 57180)", "TNF reporter robust z-score": -0.71, "Outcome": "inactive"}
{"gene": "COMMD1 (GeneID 150684)", "TNF reporter robust z-score": -0.37, "Outcome": "inactive"}
{"gene": "COMMD1 (GeneID 150684)", "TNF reporter robust z-score": -0.05, "Outcome": "inactive"}
{"gene": "COMMD1 (GeneID 150684)", "TNF reporter robust z-score": -0.77, "Outcome": "inactive"}
{"gene": "COMMD1 (GeneID 150684)", "TNF reporter robust z-score": 0.61, "Outcome": "inactive"}
